Data published in paper PMC6828764.
Results are given in words; binding and its absence hold for the method and conditions named. Binding seen in cells or lysates may run through a third protein. Some binding calls cover weakened binding; strength is not graded here. Values belong to the substance of their own block, whether it stands above or below them.

Amino acid sequences for entries named in this document (tags omitted). A change or cut given only in a name is not applied to a line headed by its entry. Chains listed by the source or under a name are the forms on record and can include a tag or linker. Residues count along the entry.
UniProt O15550: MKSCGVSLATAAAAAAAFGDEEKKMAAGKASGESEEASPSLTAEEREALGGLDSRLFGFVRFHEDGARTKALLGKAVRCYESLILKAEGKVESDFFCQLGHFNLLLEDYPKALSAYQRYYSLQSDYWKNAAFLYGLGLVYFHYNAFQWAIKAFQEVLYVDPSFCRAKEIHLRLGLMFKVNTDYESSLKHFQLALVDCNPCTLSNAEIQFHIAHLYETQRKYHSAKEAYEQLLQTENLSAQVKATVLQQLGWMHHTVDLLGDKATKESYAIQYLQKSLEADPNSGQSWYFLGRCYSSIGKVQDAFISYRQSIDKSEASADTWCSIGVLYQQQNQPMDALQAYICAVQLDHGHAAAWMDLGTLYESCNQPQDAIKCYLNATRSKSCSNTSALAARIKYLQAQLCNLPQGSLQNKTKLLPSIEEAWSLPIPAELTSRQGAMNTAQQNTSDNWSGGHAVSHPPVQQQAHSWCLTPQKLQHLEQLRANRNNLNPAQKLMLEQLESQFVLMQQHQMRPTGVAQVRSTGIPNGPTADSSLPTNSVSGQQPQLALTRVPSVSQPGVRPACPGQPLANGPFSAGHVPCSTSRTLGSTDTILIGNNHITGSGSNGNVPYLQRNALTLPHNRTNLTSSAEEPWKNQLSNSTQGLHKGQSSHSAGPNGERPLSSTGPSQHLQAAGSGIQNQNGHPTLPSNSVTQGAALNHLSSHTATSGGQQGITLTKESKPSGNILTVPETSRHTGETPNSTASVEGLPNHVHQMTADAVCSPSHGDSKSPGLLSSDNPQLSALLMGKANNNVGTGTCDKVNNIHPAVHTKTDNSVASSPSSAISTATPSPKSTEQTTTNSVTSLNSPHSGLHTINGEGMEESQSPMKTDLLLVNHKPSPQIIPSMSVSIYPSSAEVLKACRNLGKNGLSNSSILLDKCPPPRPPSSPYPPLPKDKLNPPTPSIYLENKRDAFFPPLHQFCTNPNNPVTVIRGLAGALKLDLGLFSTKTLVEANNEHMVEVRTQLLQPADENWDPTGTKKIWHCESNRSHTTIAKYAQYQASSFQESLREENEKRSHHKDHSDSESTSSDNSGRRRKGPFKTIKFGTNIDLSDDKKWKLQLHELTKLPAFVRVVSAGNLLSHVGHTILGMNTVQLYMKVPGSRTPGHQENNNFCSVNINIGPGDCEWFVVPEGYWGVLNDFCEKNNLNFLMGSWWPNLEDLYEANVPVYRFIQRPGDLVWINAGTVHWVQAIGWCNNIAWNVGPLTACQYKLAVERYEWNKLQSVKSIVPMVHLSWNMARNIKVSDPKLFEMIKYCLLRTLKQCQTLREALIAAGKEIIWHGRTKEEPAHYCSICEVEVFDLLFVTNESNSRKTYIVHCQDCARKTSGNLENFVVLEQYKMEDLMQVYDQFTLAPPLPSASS
GST-fused Jumonji C (JmjC) domain of UTX: residues 1095-1258 of O15550
UniProt Q15291: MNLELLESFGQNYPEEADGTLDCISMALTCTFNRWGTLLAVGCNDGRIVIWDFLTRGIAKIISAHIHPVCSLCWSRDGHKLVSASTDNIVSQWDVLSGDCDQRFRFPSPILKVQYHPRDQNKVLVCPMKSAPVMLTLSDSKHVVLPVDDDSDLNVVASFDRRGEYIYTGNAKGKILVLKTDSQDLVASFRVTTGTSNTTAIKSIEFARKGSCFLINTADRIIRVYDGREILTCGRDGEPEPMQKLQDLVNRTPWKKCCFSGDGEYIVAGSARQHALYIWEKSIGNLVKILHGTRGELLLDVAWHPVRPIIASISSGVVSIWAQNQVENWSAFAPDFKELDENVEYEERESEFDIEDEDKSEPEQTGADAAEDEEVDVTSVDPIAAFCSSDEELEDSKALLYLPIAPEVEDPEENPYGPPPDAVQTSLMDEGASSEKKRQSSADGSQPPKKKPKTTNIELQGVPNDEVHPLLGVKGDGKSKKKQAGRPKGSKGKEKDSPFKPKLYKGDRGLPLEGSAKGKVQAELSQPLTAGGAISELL
UniProt Q9UBL3: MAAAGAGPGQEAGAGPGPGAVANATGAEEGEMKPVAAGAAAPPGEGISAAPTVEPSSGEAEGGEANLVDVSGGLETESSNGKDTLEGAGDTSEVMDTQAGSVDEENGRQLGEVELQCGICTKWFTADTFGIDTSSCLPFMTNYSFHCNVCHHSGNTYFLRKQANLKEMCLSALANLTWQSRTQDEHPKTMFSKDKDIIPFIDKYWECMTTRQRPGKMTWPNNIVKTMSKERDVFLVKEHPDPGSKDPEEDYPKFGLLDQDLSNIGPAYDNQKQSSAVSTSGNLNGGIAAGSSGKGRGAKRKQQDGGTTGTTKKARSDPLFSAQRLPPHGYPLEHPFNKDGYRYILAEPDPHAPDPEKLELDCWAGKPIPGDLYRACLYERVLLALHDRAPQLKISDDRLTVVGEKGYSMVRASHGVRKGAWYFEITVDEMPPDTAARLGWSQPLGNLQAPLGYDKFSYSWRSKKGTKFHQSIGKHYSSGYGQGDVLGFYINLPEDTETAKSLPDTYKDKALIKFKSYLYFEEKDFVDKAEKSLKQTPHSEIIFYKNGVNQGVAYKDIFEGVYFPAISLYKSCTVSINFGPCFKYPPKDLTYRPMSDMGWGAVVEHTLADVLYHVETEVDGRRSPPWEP
UniProt P23771: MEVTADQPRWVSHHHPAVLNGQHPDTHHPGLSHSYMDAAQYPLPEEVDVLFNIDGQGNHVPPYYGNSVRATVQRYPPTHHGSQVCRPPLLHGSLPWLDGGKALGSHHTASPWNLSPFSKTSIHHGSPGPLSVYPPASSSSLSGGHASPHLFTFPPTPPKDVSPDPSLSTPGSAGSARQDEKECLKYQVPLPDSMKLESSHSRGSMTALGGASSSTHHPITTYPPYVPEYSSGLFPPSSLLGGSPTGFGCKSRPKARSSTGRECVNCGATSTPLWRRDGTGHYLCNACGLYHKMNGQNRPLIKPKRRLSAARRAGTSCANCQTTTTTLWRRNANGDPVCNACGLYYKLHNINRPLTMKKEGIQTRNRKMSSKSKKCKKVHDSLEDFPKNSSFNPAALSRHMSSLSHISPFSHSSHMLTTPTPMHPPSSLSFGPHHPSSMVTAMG
UniProt Q9BTK6: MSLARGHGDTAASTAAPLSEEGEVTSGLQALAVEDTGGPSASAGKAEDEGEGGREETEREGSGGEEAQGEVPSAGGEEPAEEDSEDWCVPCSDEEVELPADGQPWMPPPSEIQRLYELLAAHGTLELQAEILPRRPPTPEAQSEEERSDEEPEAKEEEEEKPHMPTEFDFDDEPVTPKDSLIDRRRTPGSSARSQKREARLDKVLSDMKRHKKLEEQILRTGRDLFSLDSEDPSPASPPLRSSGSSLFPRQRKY
UniProt Q6ZW49: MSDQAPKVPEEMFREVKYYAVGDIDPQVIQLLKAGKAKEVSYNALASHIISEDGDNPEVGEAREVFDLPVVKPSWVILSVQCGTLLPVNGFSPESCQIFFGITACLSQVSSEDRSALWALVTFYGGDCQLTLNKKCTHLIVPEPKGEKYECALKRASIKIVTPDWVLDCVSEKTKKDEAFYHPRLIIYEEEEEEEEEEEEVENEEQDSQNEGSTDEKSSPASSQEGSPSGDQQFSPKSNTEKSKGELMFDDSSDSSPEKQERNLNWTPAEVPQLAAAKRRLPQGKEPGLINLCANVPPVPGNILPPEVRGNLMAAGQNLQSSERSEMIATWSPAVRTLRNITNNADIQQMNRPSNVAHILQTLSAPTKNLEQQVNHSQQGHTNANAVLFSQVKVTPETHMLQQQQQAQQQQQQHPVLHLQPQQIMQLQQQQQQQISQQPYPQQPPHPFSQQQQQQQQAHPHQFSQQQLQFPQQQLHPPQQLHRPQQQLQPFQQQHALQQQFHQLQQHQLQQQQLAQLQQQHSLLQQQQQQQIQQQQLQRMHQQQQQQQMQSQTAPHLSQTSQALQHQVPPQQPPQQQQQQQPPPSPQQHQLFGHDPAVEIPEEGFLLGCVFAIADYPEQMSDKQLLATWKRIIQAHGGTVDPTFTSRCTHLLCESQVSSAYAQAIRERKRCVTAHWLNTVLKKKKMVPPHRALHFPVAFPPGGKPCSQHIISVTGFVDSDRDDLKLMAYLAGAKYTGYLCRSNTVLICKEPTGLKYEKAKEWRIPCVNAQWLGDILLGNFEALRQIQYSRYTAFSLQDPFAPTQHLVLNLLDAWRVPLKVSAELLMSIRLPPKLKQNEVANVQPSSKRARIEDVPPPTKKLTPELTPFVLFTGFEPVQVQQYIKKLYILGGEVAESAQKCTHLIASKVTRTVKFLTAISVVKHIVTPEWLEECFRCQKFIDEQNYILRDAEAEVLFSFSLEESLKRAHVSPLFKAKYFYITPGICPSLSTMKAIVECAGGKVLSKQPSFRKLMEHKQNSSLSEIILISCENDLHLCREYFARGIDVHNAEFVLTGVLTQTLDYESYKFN
UniProt P43694: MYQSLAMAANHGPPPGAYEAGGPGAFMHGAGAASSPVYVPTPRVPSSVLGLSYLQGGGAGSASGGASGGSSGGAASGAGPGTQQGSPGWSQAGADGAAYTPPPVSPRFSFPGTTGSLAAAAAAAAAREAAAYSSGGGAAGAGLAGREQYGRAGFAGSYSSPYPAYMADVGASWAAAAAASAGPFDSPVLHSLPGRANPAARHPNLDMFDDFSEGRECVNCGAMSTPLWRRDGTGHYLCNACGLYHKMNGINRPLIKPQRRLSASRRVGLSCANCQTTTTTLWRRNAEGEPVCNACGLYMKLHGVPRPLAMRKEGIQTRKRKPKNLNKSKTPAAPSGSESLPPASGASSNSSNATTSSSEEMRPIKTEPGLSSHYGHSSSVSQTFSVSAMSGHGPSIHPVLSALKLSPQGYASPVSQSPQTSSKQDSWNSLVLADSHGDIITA

What was measured:
[1] = target: UTX, the ubiquitously transcribed X-chromosome tetratricopeptide-repeat protein (human (endogenous in MCF-7 and T-47D)) (UniProt O15550); test: co-IP; endogenous proteins in MCF-7 whole-cell lysates (50 mM Tris-HCl pH 7.4, 150 mM NaCl, 1 mM EDTA, 0.5% NP-40, 0.25% sodium deoxycholate), IP 12 h at 4 °C, immunoblot; IgG as negative control; GATA3-UTX also tested in the presence and absence of ERα
[2] = target: GST-RBBP5 (full-length MLL4-complex component in pGEX-4T-3) (UniProt Q15291); test: pull-down; ~10 μg GST-fusion protein (E. coli BL21, crude bacterial lysates) mixed with 5-8 μL in vitro transcription/translation product in 0.8% BSA in PBS with protease inhibitor; glutathione-agarose beads, 4 °C, 2 h; western blot
[3] = target: GST-ASH2L (full-length MLL4-complex component in pGEX-4T-3) (UniProt Q9UBL3); test: as above
[4] = target: GST-UTX (full-length MLL4-complex component in pGEX-4T-3) (UniProt O15550); test: as above
[5] = target: GST-fused Jumonji C (JmjC) domain of UTX (UniProt O15550); test: as above
GST-fused GATA3 = GST-fused GATA3 (UniProt P23771); test: as above
[6] = target: ASH2L (human (endogenous in MCF-7)) (UniProt Q9UBL3); test: co-IP; endogenous proteins in MCF-7 whole-cell lysates (50 mM Tris-HCl pH 7.4, 150 mM NaCl, 1 mM EDTA, 0.5% NP-40, 0.25% sodium deoxycholate), IP 12 h at 4 °C, immunoblot; IgG as negative control; GATA3-UTX also tested in the presence and absence of ERα
[7] = target: PA1 (human (endogenous in MCF-7)) (UniProt Q9BTK6); test: as above
[8] = target: RBBP5 (human (endogenous in MCF-7)) (UniProt Q15291); test: as above
[9] = target: MLL4 (human (endogenous in MCF-7)) (UniProt O14686); test: as above
[10] = target: PTIP (human (endogenous in MCF-7)) (UniProt Q6ZW49); test: as above

binding [1]: binds
Substance: GATA4 (from UniProt P43694 1-442)

binding [1]: binds
Substance: RBBP5 (from UniProt Q15291 1-538)

binding [2]: binds
binding [3]: binds
binding [4]: binds
binding [5]: binds
Substance: in vitro transcribed/translated GATA3 (from UniProt P23771 1-443)

binding (GST-fused GATA3): binds
Substance: in vitro transcribed/translated RBBP5 (from UniProt Q15291 1-538)

binding [1]: binds
Substance: PTIP (from UniProt Q6ZW49 1-1069)

binding (GST-fused GATA3): binds
Substance: in vitro transcribed/translated ASH2L (from UniProt Q9UBL3 1-628)

binding [6]: binds
binding [7]: binds
binding [1]: binds
binding [8]: binds
binding [9]: binds
binding [10]: binds
Substance: GATA3 (from UniProt P23771 1-443)

binding [1]: binds
Substance: PA1 (from UniProt Q9BTK6 1-254)

binding [1]: binds
Substance: ASH2L (from UniProt Q9UBL3 1-628)
